Patent US6025365A, “Chelerythrine and radiation combined tumor therapy” (Arch Development Corp., priority 1997, dated 2000)
At least one compound was matched to its structure with a doubt left.

Legend:
SQ20-B cells [1] = assay: Clonogenic survival / colony formation assay; assay type: cell-based, human
Method: FIG. 2. Chelerythrine chloride enhanced IR-mediated cell killing through divisional death. Clonogenic survival was measured following exposure to increasing concentrations of chelerythrine and ionizing radiation. Cells were plated at cell numbers between about 500 cells/plate and about 2000 cells/plate and treated with 0 μM, 0.5 μM, or 1.0 μM chelerythrine chloride for 30 minutes prior to irradiation. After 2 weeks the colonies were scored for survival if they were composed of more than 50 cells. Results represent the mean of three individual experiments with duplicate or triplicate determinants. Error bars represent +/- the standard error of the means (SEM).
FIG. 5C. […] Closed circles represent radiation alone; closed squares represenet addition of 20 μM C2-Ceramide 30 minutes prior to x-ray.
Exponentially growing SQ20B cultures were trypsinized using 0.05% trypsin+0.02% EDTA. Cells (100 to 50,000) were plated in 100 mm tissue culture dishes. Chelerythrine or C2-ceramide was added 4 hours after plating and irradiated for 30 minutes after the addition of chelerythrine or C2-ceramide. […] Colonies of >50 cells were scored as survivors.
Clonogenic survival was measured following increasing concentrations of chelerythrine chloride alone (0.5-1.5 μM), IR alone (1-9 Gy), or the combined treatment of cells with chelerythrine and IR. […]

MG cells = assay: Chelerythrine induced apoptosis in MG cells; assay type: cell-based
SQ20-B cells [2] = assay: Apoptosis in SQ20-B (propidium iodide FACS, DAPI staining, DNA laddering); assay type: cell-based, human; details: 10 μM chelerythrine, 12 hours
Method: FIGS. 3A-3E. […] M1 defines the % of apoptotic cells as defined by (a) propidium iodide uptake of 1 log or more fluorescence and (b) a decrease in cell size of 50% or more. FL3-Height indicated the uptake of propidium by the cell. In FIG. 3A, M1=5%; FIG. 3B, M1=22%; FIG. 3C, M1=73%; FIG. 3D, M1=16%; FIG. 3E, M1=24%.
(§1) Cells undergoing apoptosis also shrink in size.
(§2) Cells, 5×10^5, were centrifuged at 1000 rpm and resuspended in approximately 100 μl cell culture media. The cell suspension was then mixed with 100 μl of DAPI (4',6-iamidino-2-phenylindole, Sigma D9542, 1 μg/ml in PBT (PBS+1% Triton X-100)). One drop of this mixture was placed on a microslide with a coverslip. The cells were viewed by fluorescence microscopy using an Olympus BX-40 microscope with a 100 Watt Mercury lamp, a 16 or 40 X Fluorite objective, N.A. 0.75, (Leco #1-UB527) and a UV filter cube (ex 330-385 nm, em 420 nm, wide band pass, Leco #U-M536). Images were photographed using an Optronics cooled low-light video camera (Leco #DEI-470TB) to which was attached a 2X coupler (Leco #HR200-CMT). The image was saved to a digital file at 72 dpi.
DNA degradation was assessed as previously described (Gottschalk et al., 1993; 1994). Briefly, following treatment in 100 mm plates or 24 well plates, cells were collected and lysed in 0.5 ml lysis buffer (0.6% SDS+10 mM EDTA, pH 7.0). […]

SQ-20B cells = assay: Viability by propidium iodide exclusion and FACS; details: 2.5 μM chelerythrine and 8 Gy
Method: Cells, 2.5-3.5×10^5, were cultured in 24-well tissue culture plates for all experiments following standard procedures as previously described (Chmura et al., 1996a; 1996b). Cells were treated with varying concentrations of chelerythrine, incubated for 30 minutes at 37° C. and then irradiated. Radiation for all samples was delivered using a ^60 Co-irradiator (Gammacell 220, Atomic Energy of Canada) at a dose rate of 2.0 Gy/sec. After the indicated time points, cells were harvested, washed once in PBS, and resuspended in PBS containing […] propidium iodide. […] Cells undergoing apoptosis also shrink in size. Cells were analyzed via flow cytometry (FACS) following standard procedures as described in (Chmura et al., 1996a; 1996b) on a FACScan (Becton-Dickson) using Lysis II software.

WEHI-231 cells [3] = details: Chmura et al., 1996a; cited from earlier work
HL-60 cells = details: cited from earlier work
[4] = Hydrolysis of labeled sphingomyelin in the absence of cellular preparations; assay type: biochemical
SQ-20B xenografts [5] = assay: Histology of SQ-20B xenografts; assay type: in vivo, nude mice (human tumor xenograft)
Method: Tumors were injected once or twice (day 0 and day 4) with chelerythrine, chelerythrine and 20 Gy (5 Gy/Day) or 20 Gy alone and excised on day 7, fixed in 10% neutral buffered formalin. Tumors were then trimmed and processed in a Tissue Tek II Tissue Processor. Tissues were embedded in paraffin, sectioned and stained with hematoxylin and eosin or with […] of DAPI (4',6-iamidino-2-phenylindole, Sigma D9542, 1 μg/ml in PBT (PBS+1% Triton X-100)), followed by examination for apoptosis and necrosis by light microscopy.
In contrast, 1/16 of the radiation+buffer and 13/43 of the chelerythrine only treated animals regressed to less than 10% of the initial tumor volume. […] Representative sections of non-necrotic areas of tumors were stained with DAPI to detect nuclear changes of apoptosis. Tumor sections were taken at day 7 following treatment with 2 injections of chelerythrine alone, 20 Gy alone, 1 injection of chelerythrine and 20 Gy, or 2 treatments with chelerythrine and 20 Gy. Nuclei from non-necrotic areas of tumors treated with radiation alone appeared rounded and contained a smooth heterachromatin appearance. Few apoptotic nuclei as defined by chromatin margination and nuclear shrinkage could be detected in these areas.

WEHI-231 cells [6] = assay: Apoptosis / cell death of WEHI-231 (propidium iodide FACS, gel electrophoresis, DAPI); assay type: cell-based, murine
Method: as §1, §2
DNA degradation was assessed as previously described (Gottschalk et al., 1993; 1994). Briefly, following treatment in 100 mm plates or 24 well plates, cells were collected and lysed in 0.5 ml lysis buffer (0.6% SDS+10 mM EDTA, pH 7.0). NaCl was added to a final concentration of 1M, mixed by inversion, incubated for 12 hours at 4° C. and then spun at 14,000 g for 30 minutes. Samples were treated with chloroform (1:1) and precipitated in ethanol prior to electrophoresis in a 3% agarose gel and visualized with ethidium bromide.

WEHI-231 OE (JM) cells = assay: Chelerythrine induced apoptosis in WEHI-231 OE (JM); assay type: cell-based, murine
SQ20-B cells [7] = assay: Cell cycle (G2/M phase) in SQ20-B cells; assay type: cell-based, human; details: 5 μM chelerythrine alone
protein kinase C (PKC) = details: cited from earlier work
WEHI-231 cells [8] = assay: Reactive oxygen species by dichlorodihydrofluorescein and FACS; assay type: cell-based, murine; details: 30 μM ceramide or 10 μM chelerythrine, 15 minutes; anti-IgM 2 hours
Method: FIGS. 8A-8C. Exogenous ceramide and PKC inhibition induce oxidative changes in WEHI-231 cells. WEHI-231 cells (1×10^6) were treated with anti-IgM antibodies for 2 hours (FIG. 8A), 30 μM exogenous ceramide for 15 minutes (FIG. 8B) or 10 μM chelerythrine for 15 minutes (FIG. 8C). The reactive oxygen species in the cells was then measured using dichlorodihydrofluorescein (DCHF-DA) and quantitated using FACS analysis. Histogram analysis of fluorescence is plotted as LOG function.
The mechanisms by which ceramide may mediate cell death is yet unknown. […] Since changes in oxidative status induced a wide range of cellular responses including growth and apoptosis in WEHI-231 and other lymphocytes, the inhibition of PKC and a resulting accumulation of ceramide were studied for their affect on the level of reactive oxygen species within the cell using the dye dichlorodihydrofluorescein and FACS analysis. […] While non-toxic oxidation may promote cell growth, intracellular reduction may lead to the activation of cysteine proteases which are proposed mediators of apoptosis.

SQ-20B xenografts [9] = assay: Growth of SQ-20B tumor xenografts in nude mice; assay type: in vivo, nude mice (human tumor xenograft)
Method: FIG. 6. The SQ-20B xenograft system was used to assess the therapeutic efficacy of the combined treatment modality over 30 days. Forty animals (n=40) were treated in each group and the % mean tumor growth was determined for all animals. Calipers were used to measure tumor growth.
SQ-20B (1-5×10^6) tumor cells were injected into the right hind limbs of nude mice (Fredrick Cancer Research Institute). Xenografts were grown for 2-3 weeks to a mean tumor volume of […]. At day 0, initial tumor volume was determined by direct measurement with calipers. During treatment tumor volumes were measured with calipers twice weekly and represented as percent of original tumor volume. Tumor volumes were calculated by the formula (a×b×c/2) which was derived from that for an ellipsoid (d3/6). Tumor cure was defined as regression to a volume of <10% of original size since, at this volume, it is impossible to differentiate residual tumor from scar tissue. Xenografts were injected with 2 mg/kg chelerythrine chloride on days 0, 3, 7 and 10. Irradiated mice were immobilized in lucite chambers and the entire body was shielded with lead except for the tumor bearing hind limb 14. Tumors were irradiated (5 Gy/day, 4 days/week) to a total dose of 50 Gy using a Maxitron generator (1.88 Gy/min.). Tumors were treated with radiation alone, chelerythrine alone, and buffer or chelerythrine combined with radiation. Data were calculated as the percent of original (day 0) tumor volume and graphed as fractional tumor volume±SEM.
Radiation was delivered at 5 Gy/day, 4 days per week, for a total of 50 Gy.

acidic sphingomyelinase = assay: Mixed micellar assay, acidic sphingomyelinase activity in treated WEHI-231 cells; assay type: cell-based, murine; details: chelerythrine, 30 minutes
platelet aggregation = details: induced by arachidonic acid and collagen; cited from earlier work
bcl-x WEHI-231 cells = assay: Chelerythrine induced apoptosis in bcl-x WEHI-231; assay type: cell-based, murine; details: bcl-x overexpression
cyclic-AMP kinase (PKA) = details: cited from earlier work

## COc1ccc2c(c[n+](C)c3c4cc5c(cc4ccc23)OCO5)c1OC [chelerythrine, 1,2-dimethoxy-12-methyl[1,3]benzodioxolo[5,6-c]phenanthridinium]
SQ20-B cells [1]; 0.5-1.5 μM, exponentially growing SQ20-B
  clonogenic survival: decreased clonogenic survival in a concentration-dependent manner
SQ20-B cells [1]; low chelerythrine concentrations (0.5-1.5 μM) and IR
  cell shrinkage and nuclear condensation: not observed
MG cells
  resistance to chelerythrine: not resistant to chelerythrine
SQ20-B cells [2]
  chromatin condensation, cytoplasmic blebbing, DNA fragmentation: induced chromatin condensation, cytoplasmic blebbing, and internucleusomal DNA fragmentation
SQ-20B cells
  morphological changes: morphological changes consistent with apoptosis
WEHI-231 cells [3]
  interaction with exogenous ceramide analogs in inducing apoptosis: act in synergy with exogenous ceramide analogs to induce apoptosis
HL-60 cells; Jarvis et al, 1994
  DNA fragmentation concentration-response: biphasic concentration-response relationships
HL-60 cells; literature reports
  apoptosis in HL-60 cells: unambiguously induces apoptotic DNA fragmentation and cell death in HL-60 cells
[4]
  hydrolysis of labeled sphingomyelin: did not induce hydrolysis of labeled sphingomyelin
SQ-20B xenografts [5]; 2 injections of chelerythrine, day 7, DAPI
  nuclei in non-necrotic areas, chelerythrine alone: appeared similar to that from radiation treated
SQ-20B xenografts [5]; 20 Gy fractionated 5 Gy/day for 4 days
  nuclei in non-necrotic areas, single dose of chelerythrine and 20 Gy: appeared shrunken and fragmented
SQ-20B xenografts [5]; combined treatment, as early as 4 days, vs XRT or chelerythrine alone
  tumor necrosis: large areas of increased tumor necrosis
SQ-20B xenografts [5]; two treatments of chelerythrine and x-ray
  viable tumor tissue: No areas of viable tissue could be found
WEHI-231 cells [6]; 10 μM chelerythrine, 2 hour
  viability or cell size: No change in viability or cell size was detectable
WEHI-231 cells [6]; chelerythrine 10 μM or calphostin C 250 nM
  DNA laddering and nuclear condensation: DNA laddering and nuclear condensation
WEHI-231 OE (JM) cells
  resistance to chelerythrine: not resistant to chelerythrine
SQ20-B cells [7]
  cell cycle arrest: induced an arrest in the G2/M phase of the cell cycle
Protein kinase C (PKC); absence of Ca^++, phosphatidylserine and dioleine
  basal activity of PKC: not affected
Protein kinase C (PKC)
  PKC inhibition: specifically inhibits protein kinase C (PKC) in a concentration-dependent manner
  specificity at blocking PKC vs staurosporin and H7: at least 30 fold
Protein kinase C (PKC); conditions of Herbert et al. (1990), rats
  IC50: 0.66 µM
Protein kinase C (PKC); selectivity
  inhibition of other protein kinases: does not inhibit any other protein kinases investigated
WEHI-231 cells [8]
  reactive oxygen species (ROS): reduced the ROS in the cells
SQ-20B xenografts [9]; chelerythrine chloride alone vs buffer injected controls
  tumor regrowth: initially inhibited tumor regrowth
SQ-20B xenografts [9]; chelerythrine with 50 Gy IR, P<0.001 vs either treatment alone
  tumor volume, combination with IR: decreased tumor volume and increased cell killing over either treatment alone
SQ-20B xenografts [9]; vs either treatment alone
  combined effect of chelerythrine and IR: greater than the additive effects of either treatment alone
Acidic sphingomyelinase
  acidic sphingomyelinase activity: but not acidic
Platelet aggregation
  platelet aggregation: strongly inhibits platelet aggregation
bcl-x WEHI-231 cells
  chelerythrine induced apoptosis: did not block chelerythrine induced apoptosis
cyclic-AMP kinase (PKA); at concentrations used for the inventors' studies
  inhibition of PKA: do not appear to inhibit other kinases
cyclic-AMP kinase (PKA)
  IC50: 170 µM
